Hit rate of the full screen: of about 300,000 compounds, about 5,400 (1.8%) were called active. Inconclusive results, whose numbers are uncertain, are shown with a selection of clear calls. The call rests on the fitted dose curve; tested in HEK293 cells. A potency beside an inconclusive call is a rough fit, not a confirmed value.
Test: qHTS for inhibitors of binding or entry into cells for Marburg Virus
Settings: Marburg virus pseudotyped entry inhibition, cell reporter; activity change, negative = inhibition: at 37.8 µM (top of the series) unless noted
On the % scale 0 is the no-effect control and ±100 the full control effect; potency means the concentration at half of the fitted maximal effect.

SMILES	Potency	activity change, negative = inhibition
CCCCN1C(=O)C(NC(C)=O)c2cc(Br)ccc21 (centres undefined)	inconclusive: 0.631 µM [inhibitor, full curve, poor fit]	–
CCSc1nnc(-c2cc3c(s2)-c2ccccc2CC3)o1	inconclusive: 1 µM [activator, full curve, poor fit]	–
COc1ccc(C(CNC(=O)c2cccc(S(=O)(=O)Nc3ccccc3OC)c2)N2CCCCC2)cc1 (centres undefined)	inconclusive: 20 µM [inhibitor, single point]	–
O=C(COc1ccc(Br)cc1)N1CCN(C2CCCC2)CC1	inconclusive: 10 µM [activator, partial curve, poor fit]	–
CCCN1CCN(C(=O)c2cc(COc3ccc(F)cc3F)on2)CC1	–	inactive: 12.4%
CCC1Oc2ccccc2N(CC(=O)Nc2ccc3c(c2)OCCO3)C1=O (centres undefined)	–	inactive: 22.5%
COc1ccc(NC(=O)CCn2nc(-c3ccc(Cl)cc3)c3ccccc3c2=O)cc1	–	inactive: 12.2% [at 46.1 µM]
COc1ccc(-c2cc(C(=O)N3CC(C)CC(C)C3)c3ccccc3n2)cc1OC (centres undefined)	–	inactive: -19.5%
O=C1COc2ccc(C(=O)COC(=O)/C=C/c3ccc(Br)o3)cc2N1	inconclusive: 17.8 µM [inhibitor, partial curve, poor fit]	–
Cc1[nH]c2ccc(F)cc2c1CCN1C(=O)OC(C)(C)C1(C)O (centres undefined)	–	inactive: 2.28% [at 46.1 µM]
CCCCCc1nc2c(C#N)c(-c3ccc(Cl)cc3)ccn2n1	inconclusive: 2.82 µM [inhibitor, full curve, poor fit]	–
CCCC1=Nc2cc(C(=O)N3CCN(c4ccccn4)CC3)ccc2Sc2ccc(C)cc21	inconclusive: 15.8 µM [inhibitor, single point]	–
O=C(O)c1ccccc1Nc1cccc(OCc2ccc3ccccc3n2)c1	inconclusive: 0.0501 µM [inhibitor, full curve, poor fit]	–
CN(c1ccccc1)S(=O)(=O)c1ccc(Cl)c(C(=O)Nc2ccc(-c3nc4ccccc4[nH]3)cc2)c1	inconclusive: 8.91 µM [inhibitor, partial curve, poor fit]	–
CCC(=O)c1cn(CC(=O)Nc2ccccc2)c2ccccc12	inconclusive: 31.6 µM [activator, single point]	–
Cc1cc(C)c(Cn2cnc(-c3ccc([N+](=O)[O-])cc3)c2)c(C)c1	inconclusive: 1.64 µM [inhibitor, partial curve, poor fit]	–
O=C(NCc1ccccc1)C(c1ccc(Cl)cc1)N(C(=O)c1csnn1)C1CC1 (centres undefined)	–	inactive: -6.33% [at 46.1 µM]
CCN1C(=O)C(=C/C=C/c2ccco2)C(=O)N(CC)C1=S	–	inactive: 13.1% [at 46.1 µM]
O=C(NNC(=O)c1ccccc1[N+](=O)[O-])c1ccco1	–	inactive: -17.8% [at 46.1 µM]
O=C(Oc1ccc(-c2nnco2)cc1)N(c1ccccc1)c1ccccc1	inconclusive: 6.31 µM [inhibitor, partial curve, poor fit]	–
Cc1ccc(C(c2ccc(C)o2)c2cccc([N+](=O)[O-])c2O)o1	–	inactive: -23.9%
Cc1ccc(CNC(=O)c2cc3c(=O)n4cccc(C)c4nc3s2)cc1	–	inactive: 7.86% [at 46.1 µM]

SMILES	Potency	activity change, negative = inhibition
COc1cc(C(N)=O)cc(Cl)c1OCc1ccccc1	inconclusive: 2.51 µM [inhibitor, single point]	–
CC(C)c1ccc(C(=O)NCc2ccc(Cl)cc2)cc1	inconclusive: 14.1 µM [activator, single point]	–
O=C1c2ccccc2C(=O)N1CSc1nnc2c3ccccc3n(CCc3ccccc3)c2n1	–	inactive: 27%
O=C(CSc1nnc(COc2ccc(F)cc2)o1)N1CCCCC1	inconclusive: 5.62 µM [activator, single point]	–
CSc1ccccc1OCc1cc(C(=O)NCCC2=CCCCC2)no1	inconclusive: 11.2 µM [activator, single point]	–
Cc1ccc(C(=O)OC(C(=O)Nc2ccc(Cl)cc2C(F)(F)F)c2ccccc2)cc1 (centres undefined)	inconclusive: 22.4 µM [inhibitor, single point]	–
Cc1ccc2oc(C(=O)NCC(c3ccc(Cl)cc3)N3CCOCC3)c(C)c2c1 (centres undefined)	inconclusive: 35.5 µM [inhibitor, partial curve, poor fit]	–
O=c1oc2ccccc2c(N2CCCCC2)c1[N+](=O)[O-]	–	inactive: 4.55%
COC(=O)C1=C(C)OC(N)=C(C#N)C1c1ccc(OC)c(OC)c1OC (centres undefined)	–	inactive: 6.84%
COC(=O)c1ccc(-c2nc3cc(N)ccc3o2)cc1	inconclusive: 10 µM [inhibitor, partial curve]	–
O=C1N/C(=C/c2cccs2)C(=O)N1Cc1ccccc1F	–	inactive: 2.87% [at 46.1 µM]
O=C(c1cncc(Br)c1)N1CCN(S(=O)(=O)c2ccc3ccccc3c2)CC1	inconclusive: 25.1 µM [inhibitor, single point]	–
OC(COc1ccc(Cl)cc1)CN1CCN(c2cccc(Cl)c2)CC1 (centres undefined)	inconclusive: 1 µM [inhibitor, full curve, poor fit]	–
CC(C)Sc1nnc(-c2ccc(S(=O)(=O)N3CCOCC3)cc2)n1C	inconclusive: 3.55 µM [inhibitor, partial curve, poor fit]	–
O=C(N/N=C/c1ccc(Br)s1)c1ccccn1	inconclusive: 0.631 µM [activator, partial curve, poor fit]	–
COC(=O)CC=C[C@H](C)[C@H](Cc1ccccc1Br)OC	inconclusive: 3.76 µM [activator, partial curve, poor fit]	–
CCOC(=O)c1ccc(N2C(=O)c3n[nH]c(-c4ccco4)c3C2c2cccc([N+](=O)[O-])c2)cc1 (centres undefined)	active: 5.01 µM	–
CCN1CCN(c2cc(C)c3cc(NC(=O)Cc4ccc(OC)c(OC)c4)ccc3n2)CC1	–	inactive: -2.43%
COc1ccc(CC(=O)Oc2ccccc2Cl)cc1S(=O)(=O)N1CCOCC1	–	inactive: 11.3% [at 46.1 µM]
CC1=C(C(=O)OCCOc2ccccc2)C(c2ccc(C)o2)C2=C(CC(C)(C)CC2=O)N1 (centres undefined)	inconclusive: 35.5 µM [inhibitor, partial curve, poor fit]	–
O=C(CC1Nc2ccccc2NC1=O)NCCCN1CCCCCC1 (centres undefined)	inconclusive: 35.5 µM [activator, single point]	–
CCCOc1ccc2c(CC)cc(=O)oc2c1C	inconclusive: 35.5 µM [activator, single point]	–
